The experiment addresses T1, FLAG-TULP3 (human) (UniProt O75386).
T1 sequence: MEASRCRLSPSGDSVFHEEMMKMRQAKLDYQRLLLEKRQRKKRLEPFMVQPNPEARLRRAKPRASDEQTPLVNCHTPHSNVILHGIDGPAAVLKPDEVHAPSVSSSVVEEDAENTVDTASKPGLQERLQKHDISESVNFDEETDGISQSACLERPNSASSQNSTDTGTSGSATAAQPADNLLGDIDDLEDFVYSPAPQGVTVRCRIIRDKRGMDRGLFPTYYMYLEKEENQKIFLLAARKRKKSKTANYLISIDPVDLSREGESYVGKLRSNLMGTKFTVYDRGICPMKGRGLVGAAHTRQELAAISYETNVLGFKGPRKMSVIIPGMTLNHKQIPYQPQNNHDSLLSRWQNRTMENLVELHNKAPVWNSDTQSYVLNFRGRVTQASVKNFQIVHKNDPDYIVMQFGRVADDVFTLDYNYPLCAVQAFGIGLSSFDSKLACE
Put plainly: affinity purification with mass spectrometry; lysates of HEK293T cells expressing FLAG-TULP3 or empty MSCV (mock-FLAG), anti-FLAG beads, SDS-PAGE, in-gel trypsin digestion, LC-MS/MS; hits of the mock IP and proteins with high CRAPome counts removed.

Amino acid sequences for entries named in this document (tags omitted).
UniProt Q86V97: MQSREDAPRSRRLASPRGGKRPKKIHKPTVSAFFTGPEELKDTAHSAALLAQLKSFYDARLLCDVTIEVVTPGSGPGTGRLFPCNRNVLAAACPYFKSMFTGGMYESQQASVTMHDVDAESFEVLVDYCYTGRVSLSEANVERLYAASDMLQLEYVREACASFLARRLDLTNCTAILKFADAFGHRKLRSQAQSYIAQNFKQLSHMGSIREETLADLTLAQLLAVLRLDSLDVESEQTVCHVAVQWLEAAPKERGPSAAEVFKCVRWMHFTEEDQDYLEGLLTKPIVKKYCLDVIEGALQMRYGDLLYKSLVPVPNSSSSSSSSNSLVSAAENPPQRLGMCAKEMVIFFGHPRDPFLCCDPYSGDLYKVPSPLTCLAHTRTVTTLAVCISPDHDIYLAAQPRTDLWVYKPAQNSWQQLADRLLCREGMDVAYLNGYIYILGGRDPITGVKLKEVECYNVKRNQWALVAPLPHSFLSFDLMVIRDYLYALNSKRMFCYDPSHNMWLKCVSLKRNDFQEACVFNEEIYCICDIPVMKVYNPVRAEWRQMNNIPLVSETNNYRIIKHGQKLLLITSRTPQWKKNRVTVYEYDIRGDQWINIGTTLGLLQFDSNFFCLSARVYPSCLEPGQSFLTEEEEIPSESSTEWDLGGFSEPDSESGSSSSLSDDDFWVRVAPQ
UniProt Q8WVZ9: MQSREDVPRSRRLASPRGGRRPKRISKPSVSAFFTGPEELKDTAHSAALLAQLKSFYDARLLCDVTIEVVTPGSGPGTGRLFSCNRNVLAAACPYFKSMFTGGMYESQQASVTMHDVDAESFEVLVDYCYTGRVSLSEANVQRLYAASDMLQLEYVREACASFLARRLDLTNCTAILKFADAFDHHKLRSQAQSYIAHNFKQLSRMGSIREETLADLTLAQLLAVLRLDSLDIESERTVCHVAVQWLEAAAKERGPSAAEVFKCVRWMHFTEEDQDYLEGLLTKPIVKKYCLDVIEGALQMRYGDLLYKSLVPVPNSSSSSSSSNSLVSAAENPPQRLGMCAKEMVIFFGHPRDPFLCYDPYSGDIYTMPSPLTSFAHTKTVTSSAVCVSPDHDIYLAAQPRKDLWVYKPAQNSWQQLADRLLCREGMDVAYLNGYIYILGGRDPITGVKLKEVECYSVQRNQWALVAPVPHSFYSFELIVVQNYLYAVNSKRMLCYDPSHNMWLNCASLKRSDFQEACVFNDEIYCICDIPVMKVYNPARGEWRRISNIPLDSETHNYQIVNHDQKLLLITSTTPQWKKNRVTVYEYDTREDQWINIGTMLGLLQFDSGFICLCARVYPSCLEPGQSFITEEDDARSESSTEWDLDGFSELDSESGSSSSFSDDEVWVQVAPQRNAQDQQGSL
UniProt Q13547: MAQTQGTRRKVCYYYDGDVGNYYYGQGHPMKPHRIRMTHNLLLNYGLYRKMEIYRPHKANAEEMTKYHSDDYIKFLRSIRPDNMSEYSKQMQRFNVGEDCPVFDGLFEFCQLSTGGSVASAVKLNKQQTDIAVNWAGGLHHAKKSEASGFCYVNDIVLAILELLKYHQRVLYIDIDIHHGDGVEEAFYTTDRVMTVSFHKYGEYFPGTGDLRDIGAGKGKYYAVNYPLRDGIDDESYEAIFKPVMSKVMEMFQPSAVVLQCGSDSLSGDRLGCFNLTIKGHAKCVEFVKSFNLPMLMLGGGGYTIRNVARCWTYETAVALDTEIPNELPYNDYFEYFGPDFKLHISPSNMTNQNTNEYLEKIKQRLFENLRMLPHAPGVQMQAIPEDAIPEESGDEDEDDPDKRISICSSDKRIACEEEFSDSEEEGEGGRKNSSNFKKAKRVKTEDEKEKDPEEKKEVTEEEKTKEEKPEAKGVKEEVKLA

These are yes or no findings as the source states them, for the method shown. Binding seen in cells or lysates may run through a third protein. A yes stands for co-enrichment or nearness to the bait. Other partners may have been found. Sequences can lack the tags named with a protein.

On to KBTB6 (from UniProt Q86V97 1-674), for which the binding result was “binds”. Next, KBTB7 (from UniProt Q8WVZ9 1-684): “binds”; “HDAC1 (from UniProt Q13547 1-482) (enzyme)”: “binds”.

The record behind these values is paper PMC7948452.
